Our source for the hypnozoite quantity inhibition values is the supplement of paper PMC8497498.

SMILES strings stand for the structures. This is one part of the list. The data scatter; read single values as rough.

The subject of this experiment is Plasmodium vivax liver stage (primary human hepatocyte culture). Put plainly: hypnozoite quantity inhibition (% inhibition); higher = more active against hypnozoites. As to conditions: 10 µM; assay mode: Prophylactic (treated before or shortly after infection), fixed day 6 post-infection.
Consider `O=C(Nc1ccc(-c2nc3cc(NC(=O)c4ccc(Cl)cc4)ccc3[nH]2)cc1)c1ccc(Cl)cc1`, for which the hypnozoite quantity inhibition is -11.7.

Compound `COc1cccc(NC(=O)Cn2c(C)c(C#N)c3ccccc32)c1` came in with a hypnozoite quantity inhibition of -35.5.

In turn, `CCCc1c(C)nc2ccc(Br)cc2c1O` displayed a hypnozoite quantity inhibition of 3.8.

`O=C(Nc1ccc(F)c(-c2nc3cc(-c4ccccc4)cnc3[nH]2)c1)N1CCCC1` yielded a hypnozoite quantity inhibition of -64.

Compound `O=C(CN1CCOCC1)Nc1ccc2ncnc(Nc3ccc(OCc4cccc(F)c4)c(Cl)c3)c2c1` gave a hypnozoite quantity inhibition of -44.

In turn, `Cc1ccc2cc(C3NC(=O)c4ccccc4N3)c(Cl)nc2c1` (centres undefined) registered a hypnozoite quantity inhibition of 20.

`CCc1cc(=O)n(C)c(SC(C)C(=O)Nc2ccc(F)cc2)n1` (centres undefined) displayed a hypnozoite quantity inhibition of -24.

As to `CCCCOC(=O)Nc1cc2nc(C3CCCCC3)[nH]c2cc1N1CCCC1`, the hypnozoite quantity inhibition was -2.

Turning to `CC(C)(C)CN1C(=O)C(c2ccccc2)(c2ccccc2)N=C1N`, the hypnozoite quantity inhibition was -51.

As to `CNC(=O)C1Cc2c([nH]c3cc(Cl)ccc23)C2(CCN(CCc3ccccc3)CC2)N1` (centres undefined), the hypnozoite quantity inhibition stood at 4.

On to `CCCCOC(=O)c1ccc(Nc2cc(C)nc3ccc(OC)cc23)cc1`, for which the hypnozoite quantity inhibition is -15.2.

`COc1cccc(-n2nnnc2S(=O)(=O)Cc2ccccc2)c1` showed a hypnozoite quantity inhibition of 28.

Compound `COc1ccc(-c2cnc3cnc(-c4cccc(OC(C)C)c4)cn23)cc1` yielded a hypnozoite quantity inhibition of -28.

`Cc1nc(-c2ccccn2)nc(NCCc2ccc(S(C)(=O)=O)cc2)c1Cl` came in with a hypnozoite quantity inhibition of 8.

As to `Cc1ccc(Nc2nc(NCCO)c3ccccc3n2)cc1C`, the hypnozoite quantity inhibition is 10.7.

Consider `CCc1c(C)c(=N)c2ccccc2n1C`, for which the hypnozoite quantity inhibition worked out at 12.1.

For the compound `COc1nc(Nc2ccc(C(C)C)cc2)nc(OC)n1`, the hypnozoite quantity inhibition was 9.5.

`C[C@H](C(N)=O)N1CCCC[C@@H]1c1ccc(OCc2cccc(F)c2)cc1`: the hypnozoite quantity inhibition is -24.

`CC1CC(C)CN(C(=O)c2ccc(Cl)cc2Cl)C1` (centres undefined) showed a hypnozoite quantity inhibition of -53.3.

Consider `Clc1ccc2c(N3CCCC3)ccnc2c1`, for which the hypnozoite quantity inhibition came out at 4.4.

Regarding `CCc1ccc(Nc2cc(C)nc3nc(C)nn23)cc1`, the hypnozoite quantity inhibition came to 15.8.

`COc1cc(-c2cc(-c3ccc(S(C)(=O)=O)cc3)cnc2N)ccc1O` returned a hypnozoite quantity inhibition of 38.

Compound `CC[C@H](CO)NCCN[C@H](CC)CO` displayed a hypnozoite quantity inhibition of -4.

In turn, `O=C(NC1CCN(Cc2ccccc2)CC1)c1cc(C(=O)NC2CCN(Cc3ccccc3)CC2)cc(C(=O)NC2CCN(Cc3ccccc3)CC2)c1` came in with a hypnozoite quantity inhibition of 55.2.

On to `CCN(CC)CCCNc1ccnc2cc(Cl)ccc12`, for which the hypnozoite quantity inhibition is -16.

With `CCN1CCN(c2cc(C)c3cc(NC(=O)c4ccc(OC)c(OC)c4)ccc3n2)CC1`, the hypnozoite quantity inhibition is -1.3.

`O=C1C2=C(Nc3ccccc3SC2c2ccccc2)c2ccccc21` (centres undefined): the hypnozoite quantity inhibition was 12.

`CC(=O)N(CCN(C(=O)c1ccc(F)cc1)c1ccccc1)c1ccccc1` gave a hypnozoite quantity inhibition of -11.

In turn, `COc1ccc2nc(C)cc(Nc3cccc(O)c3)c2c1` registered a hypnozoite quantity inhibition of 3.8.

`NCCN(C(=O)c1ccc(Cl)cc1Cl)c1ccc(OCc2ccc(Cl)cc2)cc1` had a hypnozoite quantity inhibition of 49.

Compound `COc1cc(OC)cc(C(=O)NCC2Cc3cc(Cl)cc(-c4ccncc4)c3O2)c1` (centres undefined) displayed a hypnozoite quantity inhibition of 41.

As to `O=C1c2ccc3c4c(ccc(c24)C(=O)N1CCCCO)C(=O)N(CCCCO)C3=O`, the hypnozoite quantity inhibition was 31.4.

On to `O=C(NC1CC1)c1ccc(N2CCOc3ccc(Cl)cc32)s1`, for which the hypnozoite quantity inhibition is 21.

`CN1CCC(c2cc(-c3ccncc3)c(-c3ccc(F)cc3)[nH]2)CC1` showed a hypnozoite quantity inhibition of 48.

Consider `COc1cc(OC)cc(N2C(=O)N(Cc3ccc(C(C)(C)C)cc3)c3ccccc3S2(=O)=O)c1`, for which the hypnozoite quantity inhibition was -17.1.

`O=S(=O)(c1ccc(Cl)cc1)N1CCN(C(=S)NCc2ccco2)CC1`: the hypnozoite quantity inhibition was 44.

For the compound `Cc1ccc(S(=O)(=O)N2CCN(C(=O)c3cc(-c4ccccc4)[nH]n3)CC2)cc1`, the hypnozoite quantity inhibition was -19.

For the compound `CCOC(=O)c1noc(N)c1-c1ccccc1`, the hypnozoite quantity inhibition was -11.

Turning to `Cn1c(=O)c2c(S(C)(=O)=O)snc2n(C)c1=O`, the hypnozoite quantity inhibition is -3.
